Our source for the binding values is paper PMC3002282.

Protein sequences, listed by entry. Tags and fused reporters are not part of them.
UniProt P19538: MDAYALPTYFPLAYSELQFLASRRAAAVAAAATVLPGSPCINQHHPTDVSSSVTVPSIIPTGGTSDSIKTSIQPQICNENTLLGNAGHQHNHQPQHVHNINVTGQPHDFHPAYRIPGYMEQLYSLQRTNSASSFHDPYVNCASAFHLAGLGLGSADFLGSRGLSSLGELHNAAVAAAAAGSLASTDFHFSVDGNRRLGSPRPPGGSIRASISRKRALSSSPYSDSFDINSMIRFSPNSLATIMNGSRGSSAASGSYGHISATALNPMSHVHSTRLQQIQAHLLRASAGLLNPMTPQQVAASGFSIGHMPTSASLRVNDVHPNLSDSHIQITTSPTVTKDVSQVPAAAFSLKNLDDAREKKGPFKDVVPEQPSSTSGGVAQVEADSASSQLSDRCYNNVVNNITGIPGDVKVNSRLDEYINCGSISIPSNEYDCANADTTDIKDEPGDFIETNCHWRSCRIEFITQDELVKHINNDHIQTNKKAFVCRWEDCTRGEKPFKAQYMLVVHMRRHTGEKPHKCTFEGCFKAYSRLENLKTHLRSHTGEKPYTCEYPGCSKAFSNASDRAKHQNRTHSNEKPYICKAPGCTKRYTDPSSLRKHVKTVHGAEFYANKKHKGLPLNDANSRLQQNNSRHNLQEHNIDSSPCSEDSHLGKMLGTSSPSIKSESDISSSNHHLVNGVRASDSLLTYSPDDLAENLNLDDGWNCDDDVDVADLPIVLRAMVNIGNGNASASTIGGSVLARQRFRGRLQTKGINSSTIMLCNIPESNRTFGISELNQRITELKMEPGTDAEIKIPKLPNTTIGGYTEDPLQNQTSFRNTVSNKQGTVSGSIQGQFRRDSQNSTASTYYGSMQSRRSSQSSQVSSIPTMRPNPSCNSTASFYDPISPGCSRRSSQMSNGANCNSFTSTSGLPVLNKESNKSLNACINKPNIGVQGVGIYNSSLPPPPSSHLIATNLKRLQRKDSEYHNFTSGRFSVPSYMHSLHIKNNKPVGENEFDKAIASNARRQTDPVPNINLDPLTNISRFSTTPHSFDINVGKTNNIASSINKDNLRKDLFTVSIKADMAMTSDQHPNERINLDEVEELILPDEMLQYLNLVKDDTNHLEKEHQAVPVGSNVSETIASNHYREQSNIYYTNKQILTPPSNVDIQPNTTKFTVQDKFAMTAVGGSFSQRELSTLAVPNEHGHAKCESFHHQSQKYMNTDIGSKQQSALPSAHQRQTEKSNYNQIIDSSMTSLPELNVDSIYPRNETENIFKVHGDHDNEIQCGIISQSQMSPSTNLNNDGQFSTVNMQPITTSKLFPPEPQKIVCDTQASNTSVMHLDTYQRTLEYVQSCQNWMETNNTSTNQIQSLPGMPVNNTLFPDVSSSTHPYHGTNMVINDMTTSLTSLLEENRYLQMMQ

The target of the experiment is HA-Ci-155 (Drosophila) (UniProt P19538). Description: co-IP; clone-8 cells transfected with Myc-importin α3, HA-Ci-155 and Hh; lysis in 50 mM HEPES pH 7.4, 250 mM NaCl, 0.5% NP-40, 0.2 mM EDTA, diluted to 150 mM NaCl; immunoprecipitation with anti-HA (3F10) or control rat IgG; blot with anti-HA or anti-Myc.

These are yes or no findings as the source states them, for the method shown. Binding seen in cells or lysates may run through a third protein. Some binding calls cover weakened binding; strength is not graded here. Where a sequence is shown, tags or fusion partners need not be part of it.

B1: Myc-Importin α3 (protein, UniProt Q9V455 1-514)
chain: MTSMEQNRLQNFKNKGKDQDEMRRRRNEVTVELRKNKREETILKRRNVPNLDSNTDEEEQLSSSIDLKKLAKAAADATKPEQQLAAVQAARKLLSSDKNPPINDLIQSDILPILVECLKQHNHTMLQFEAAWALTNIASGTSAQTNEVVAAGAVPLFLQLLNSPAPNVCEQAVWALGNIIGDGPLLRDFVIKHGVVQPLLSFIKPDIPITFLRNVTWVIVNLCRNKDPAPPTATIHEILPALNVLIHHTDTNILVDTVWAISYLTDGGNDQIQMVIESGVVPKLIPLLGNSEVKVQTAALRAVGNIVTGSDEQTQVVLNYDALSYFPGLLSHPKEKIRKEAVWFLSNITAGNQSQVQAVINVGLLPKIIENLSKGEFQTQKEAAWAISNLTISGNREQVFTLIKEGVIPPFCDLLSCQDTQVINVVLDGLNNMLKVADSHVEAVANCIEECEGLAKIERLQSHENVEIYKLAYEIIDQYFTDEGEQTNMAPTSDGAQYNFDPHADRLTMNSFNF
Turning to B1, the binding result is on record as “binds”.
